Measured values reported in article PMC10353998 (2023).
These are yes or no findings as the source states them, for the method shown. In cells and extracts the contact can be indirect. Here binding means that the protein was enriched with, or labelled near, the bait; the list need not be complete. Sequences can lack the tags named with a protein.

By UniProt entry, the sequences of proteins in these tests, tags left out.
UniProt P38159: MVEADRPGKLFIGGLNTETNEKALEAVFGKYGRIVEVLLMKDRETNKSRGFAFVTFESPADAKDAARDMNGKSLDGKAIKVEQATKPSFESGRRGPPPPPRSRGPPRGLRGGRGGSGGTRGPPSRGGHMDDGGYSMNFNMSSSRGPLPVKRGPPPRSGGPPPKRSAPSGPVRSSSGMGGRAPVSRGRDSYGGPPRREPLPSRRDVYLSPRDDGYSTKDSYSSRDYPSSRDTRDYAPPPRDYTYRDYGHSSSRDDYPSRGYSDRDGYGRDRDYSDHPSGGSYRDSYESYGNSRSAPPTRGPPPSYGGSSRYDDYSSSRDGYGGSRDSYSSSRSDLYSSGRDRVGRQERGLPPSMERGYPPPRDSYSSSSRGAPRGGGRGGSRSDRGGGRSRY

T1: eGFP-GGSG-Flag-RBM20-R634Q (human) (UniProt Q5T481)
T1 sequence: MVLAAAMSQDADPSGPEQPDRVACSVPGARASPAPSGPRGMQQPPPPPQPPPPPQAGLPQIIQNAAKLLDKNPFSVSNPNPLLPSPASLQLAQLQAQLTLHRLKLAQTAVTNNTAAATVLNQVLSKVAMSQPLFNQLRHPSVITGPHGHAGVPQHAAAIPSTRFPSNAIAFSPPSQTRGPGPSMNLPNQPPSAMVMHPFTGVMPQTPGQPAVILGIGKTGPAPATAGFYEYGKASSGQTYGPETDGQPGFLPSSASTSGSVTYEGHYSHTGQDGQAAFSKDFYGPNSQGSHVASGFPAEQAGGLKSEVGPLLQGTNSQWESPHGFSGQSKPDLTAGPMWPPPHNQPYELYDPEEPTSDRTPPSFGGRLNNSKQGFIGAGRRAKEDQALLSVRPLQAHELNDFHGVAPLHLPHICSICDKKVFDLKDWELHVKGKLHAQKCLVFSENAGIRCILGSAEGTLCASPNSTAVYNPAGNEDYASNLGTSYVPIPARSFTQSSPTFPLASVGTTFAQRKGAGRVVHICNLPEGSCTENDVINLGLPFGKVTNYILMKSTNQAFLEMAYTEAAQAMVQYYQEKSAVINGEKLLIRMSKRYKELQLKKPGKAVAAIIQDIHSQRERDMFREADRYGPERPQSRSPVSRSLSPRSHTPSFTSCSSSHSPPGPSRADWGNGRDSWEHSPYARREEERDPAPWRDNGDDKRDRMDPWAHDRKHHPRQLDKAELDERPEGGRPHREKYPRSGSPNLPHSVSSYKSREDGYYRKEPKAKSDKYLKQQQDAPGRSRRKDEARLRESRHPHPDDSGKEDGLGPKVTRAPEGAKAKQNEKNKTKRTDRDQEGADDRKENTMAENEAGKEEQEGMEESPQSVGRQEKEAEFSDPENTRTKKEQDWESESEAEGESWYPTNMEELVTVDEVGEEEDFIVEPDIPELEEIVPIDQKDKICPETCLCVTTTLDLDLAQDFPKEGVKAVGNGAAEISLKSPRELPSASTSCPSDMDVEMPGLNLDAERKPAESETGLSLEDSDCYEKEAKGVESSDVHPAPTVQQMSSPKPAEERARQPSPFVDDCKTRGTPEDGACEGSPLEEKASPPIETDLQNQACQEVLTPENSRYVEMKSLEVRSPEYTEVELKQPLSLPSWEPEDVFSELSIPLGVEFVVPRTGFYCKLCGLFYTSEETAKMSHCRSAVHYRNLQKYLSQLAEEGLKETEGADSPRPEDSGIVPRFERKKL

T2: eGFP-GGSG-Flag-RBM20-WT (human) (UniProt Q5T481)
T2 sequence: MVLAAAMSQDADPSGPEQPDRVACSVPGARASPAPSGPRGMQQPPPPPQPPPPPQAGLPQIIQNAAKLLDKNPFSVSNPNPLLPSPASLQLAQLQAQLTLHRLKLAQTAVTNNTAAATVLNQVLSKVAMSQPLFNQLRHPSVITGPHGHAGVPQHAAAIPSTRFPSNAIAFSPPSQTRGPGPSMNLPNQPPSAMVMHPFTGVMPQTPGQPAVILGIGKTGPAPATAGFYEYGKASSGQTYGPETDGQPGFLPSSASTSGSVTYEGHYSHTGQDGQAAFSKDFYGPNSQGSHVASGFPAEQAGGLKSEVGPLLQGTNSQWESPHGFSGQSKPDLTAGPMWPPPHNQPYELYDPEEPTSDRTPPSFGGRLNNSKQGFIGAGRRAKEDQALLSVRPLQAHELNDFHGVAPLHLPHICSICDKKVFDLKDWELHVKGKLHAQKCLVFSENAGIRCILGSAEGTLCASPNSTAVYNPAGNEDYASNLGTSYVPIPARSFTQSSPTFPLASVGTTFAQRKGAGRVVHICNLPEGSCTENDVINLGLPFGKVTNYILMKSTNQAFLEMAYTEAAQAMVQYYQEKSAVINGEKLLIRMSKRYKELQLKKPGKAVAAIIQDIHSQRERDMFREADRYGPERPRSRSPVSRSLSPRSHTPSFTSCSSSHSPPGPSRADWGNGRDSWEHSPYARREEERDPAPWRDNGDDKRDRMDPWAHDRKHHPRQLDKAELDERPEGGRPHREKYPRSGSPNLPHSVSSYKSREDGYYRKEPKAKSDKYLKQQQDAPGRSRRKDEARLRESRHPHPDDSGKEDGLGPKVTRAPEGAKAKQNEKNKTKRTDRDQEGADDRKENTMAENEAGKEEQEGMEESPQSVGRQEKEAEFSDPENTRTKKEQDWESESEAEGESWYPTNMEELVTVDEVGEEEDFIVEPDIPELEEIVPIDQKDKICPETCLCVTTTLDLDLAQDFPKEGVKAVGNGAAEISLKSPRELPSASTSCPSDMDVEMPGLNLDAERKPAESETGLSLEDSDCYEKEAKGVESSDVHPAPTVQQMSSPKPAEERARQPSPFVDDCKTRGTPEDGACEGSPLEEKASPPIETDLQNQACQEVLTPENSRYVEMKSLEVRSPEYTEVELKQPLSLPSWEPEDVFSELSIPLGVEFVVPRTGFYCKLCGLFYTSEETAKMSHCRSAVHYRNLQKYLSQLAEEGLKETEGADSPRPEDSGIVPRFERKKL


Tests used:
[1] = target: T1, eGFP-GGSG-Flag-RBM20-R634Q (human); assay: affinity purification with mass spectrometry; GFP-Trap magnetic particles, 1 mg of nuclear and insoluble fraction of HeLa expressing eGFP-RBM20 (WT, P633L, R634Q, RSS), 4 °C 3 h; washes with 150 mM NaCl, 0.1% NP-40; TMT LC-MS/MS; hits against a no-bait control
[2] = target: T2, eGFP-GGSG-Flag-RBM20-WT (human); assay: as above

binding [1] | binding [2] | Molecule
binds | binds | RBMX (from UniProt P38159 1-391)
binds | binds | RBM14 (protein, UniProt Q96PK6 1-669) MKIFVGNVDGADTTPEELAALFAPYGTVMSCAVMKQFAFVHMRENAGALRAIEALHGHELRPGRALVVEMSRPRPLNTWKIFVGNVSAACTSQELRSLFERRGRVIECDVVKDYAFVHMEKEADAKAAIAQLNGKEVKGKRINVELSTKGQKKGPGLAVQSGDKTKKPGAGDTAFPGTGGFSATFDYQQAFGNSTGGFDGQARQPTPPFFGRDRSPLRRSPPRASYVAPLTAQPATYRAQPSVSLGAAYRAQPSASLGVGYRTQPMTAQAASYRAQPSVSLGAPYRGQLASPSSQSAAASSLGPYGGAQPSASALSSYGGQAAAASSLNSYGAQGSSLASYGNQPSSYGAQAASSYGVRAAASSYNTQGAASSLGSYGAQAASYGAQSAASSLAYGAQAASYNAQPSASYNAQSAPYAAQQAASYSSQPAAYVAQPATAAAYASQPAAYAAQATTPMAGSYGAQPVVQTQLNSYGAQASMGLSGSYGAQSAAAATGSYGAAAAYGAQPSATLAAPYRTQSSASLAASYAAQQHPQAAASYRGQPGNAYDGAGQPSAAYLSMSQGAVANANSTPPPYERTRLSPPRASYDDPYKKAVAMSKRYGSDRRLAELSDYRRLSESQLSFRRSPTKSSLDYRRLPDAHSDYARYSGSYNDYLRAAQMHSGYQRRM
binds | binds | RBM15 (protein, UniProt Q96T37 1-977) MRTAGRDPVPRRSPRWRRAVPLCETSAGRRVTQLRGDDLRRPATMKGKERSPVKAKRSRGGEDSTSRGERSKKLGGSGGSNGSSSGKTDSGGGSRRSLHLDKSSSRGGSREYDTGGGSSSSRLHSYSSPSTKNSSGGGESRSSSRGGGGESRSSGAASSAPGGGDGAEYKTLKISELGSQLSDEAVEDGLFHEFKRFGDVSVKISHLSGSGSGDERVAFVNFRRPEDARAAKHARGRLVLYDRPLKIEAVYVSRRRSRSPLDKDTYPPSASVVGASVGGHRHPPGGGGGQRSLSPGGAALGYRDYRLQQLALGRLPPPPPPPLPRDLERERDYPFYERVRPAYSLEPRVGAGAGAAPFREVDEISPEDDQRANRTLFLGNLDITVTESDLRRAFDRFGVITEVDIKRPSRGQTSTYGFLKFENLDMSHRAKLAMSGKIIIRNPIKIGYGKATPTTRLWVGGLGPWVPLAALAREFDRFGTIRTIDYRKGDSWAYIQYESLDAAHAAWTHMRGFPLGGPDRRLRVDFADTEHRYQQQYLQPLPLTHYELVTDAFGHRAPDPLRGARDRTPPLLYRDRDRDLYPDSDWVPPPPPVRERSTRTAATSVPAYEPLDSLDRRRDGWSLDRDRGDRDLPSSRDQPRKRRLPEESGGRHLDRSPESDRPRKRHCAPSPDRSPELSSSRDRYNSDNDRSSRLLLERPSPIRDRRGSLEKSQGDKRDRKNSASAERDRKHRTTAPTEGKSPLKKEDRSDGSAPSTSTASSKLKSPSQKQDGGTAPVASASPKLCLAWQGMLLLKNSNFPSNMHLLQGDLQVASSLLVEGSTGGKVAQLKITQRLRLDQPKLDEVTRRIKVAGPNGYAILLAVPGSSDSRSSSSSAASDTATSTQRPLRNLVSYLKQKQAAGVISLPVGGNKDKENTGVLHAFPPCEFSQQFLDSPAKALAKSEEDYLVMIIVRGFGFQIGVRYENKKRENLALTLL
